Earlier results in US20070269503A1, “Combinations of HMG CoA reductase inhibitors and negatively charged phospholipids and uses thereof” (priority 2006, published 2007).

Conditions: 10-20 mg/day in 2 kg rabbits; cited from earlier work

CC(C)c1c(C(=O)Nc2ccccc2)c(-c2ccccc2)c(-c2ccc(F)cc2)n1CC[C@@H](O)C[C@@H](O)CC(=O)O [atorvastatin]
reduction of plasma cholesterol levels: approximately 60%
